Assay results taken from doi:10.1101/2020.06.06.138156 (bioRxiv, 2020).
No constants are given. Whether binding was seen depends on the method and setting. In cells and extracts the contact can be indirect.

Columns and labels:
Test in all cases: pull-down
[1] = target: T1, Halo-SETD2CΔ2114-2263 (human) (UniProt Q9BYW2)
T1 sequence: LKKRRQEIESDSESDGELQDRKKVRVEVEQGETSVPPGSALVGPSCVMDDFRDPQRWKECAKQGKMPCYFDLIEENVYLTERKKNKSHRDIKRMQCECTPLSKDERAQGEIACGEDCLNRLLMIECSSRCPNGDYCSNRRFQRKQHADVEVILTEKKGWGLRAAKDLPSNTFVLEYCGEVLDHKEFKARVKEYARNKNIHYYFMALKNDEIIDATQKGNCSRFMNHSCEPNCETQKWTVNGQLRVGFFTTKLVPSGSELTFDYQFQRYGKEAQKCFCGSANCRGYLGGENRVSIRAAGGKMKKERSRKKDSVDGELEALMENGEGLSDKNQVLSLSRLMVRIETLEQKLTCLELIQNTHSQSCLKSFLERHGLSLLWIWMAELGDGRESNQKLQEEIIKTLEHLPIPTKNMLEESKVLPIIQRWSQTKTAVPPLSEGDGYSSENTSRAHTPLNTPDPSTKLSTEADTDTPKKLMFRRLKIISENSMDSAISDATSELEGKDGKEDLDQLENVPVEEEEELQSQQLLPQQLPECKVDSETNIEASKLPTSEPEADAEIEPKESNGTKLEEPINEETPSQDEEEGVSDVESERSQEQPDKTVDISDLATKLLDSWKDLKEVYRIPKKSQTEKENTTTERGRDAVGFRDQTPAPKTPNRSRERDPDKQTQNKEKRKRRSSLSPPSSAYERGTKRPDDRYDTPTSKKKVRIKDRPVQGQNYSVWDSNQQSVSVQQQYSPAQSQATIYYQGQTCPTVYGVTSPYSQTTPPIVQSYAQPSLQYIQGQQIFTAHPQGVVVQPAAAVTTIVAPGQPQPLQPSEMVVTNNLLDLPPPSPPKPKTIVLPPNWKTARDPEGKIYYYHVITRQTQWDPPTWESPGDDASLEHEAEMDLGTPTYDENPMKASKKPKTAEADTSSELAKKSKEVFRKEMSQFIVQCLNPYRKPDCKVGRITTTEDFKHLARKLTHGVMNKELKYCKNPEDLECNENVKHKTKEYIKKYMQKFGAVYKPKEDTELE

[2] = target: T2, Halo-SETD2CΔ2164-2213 (human) (UniProt Q9BYW2)
T2 sequence: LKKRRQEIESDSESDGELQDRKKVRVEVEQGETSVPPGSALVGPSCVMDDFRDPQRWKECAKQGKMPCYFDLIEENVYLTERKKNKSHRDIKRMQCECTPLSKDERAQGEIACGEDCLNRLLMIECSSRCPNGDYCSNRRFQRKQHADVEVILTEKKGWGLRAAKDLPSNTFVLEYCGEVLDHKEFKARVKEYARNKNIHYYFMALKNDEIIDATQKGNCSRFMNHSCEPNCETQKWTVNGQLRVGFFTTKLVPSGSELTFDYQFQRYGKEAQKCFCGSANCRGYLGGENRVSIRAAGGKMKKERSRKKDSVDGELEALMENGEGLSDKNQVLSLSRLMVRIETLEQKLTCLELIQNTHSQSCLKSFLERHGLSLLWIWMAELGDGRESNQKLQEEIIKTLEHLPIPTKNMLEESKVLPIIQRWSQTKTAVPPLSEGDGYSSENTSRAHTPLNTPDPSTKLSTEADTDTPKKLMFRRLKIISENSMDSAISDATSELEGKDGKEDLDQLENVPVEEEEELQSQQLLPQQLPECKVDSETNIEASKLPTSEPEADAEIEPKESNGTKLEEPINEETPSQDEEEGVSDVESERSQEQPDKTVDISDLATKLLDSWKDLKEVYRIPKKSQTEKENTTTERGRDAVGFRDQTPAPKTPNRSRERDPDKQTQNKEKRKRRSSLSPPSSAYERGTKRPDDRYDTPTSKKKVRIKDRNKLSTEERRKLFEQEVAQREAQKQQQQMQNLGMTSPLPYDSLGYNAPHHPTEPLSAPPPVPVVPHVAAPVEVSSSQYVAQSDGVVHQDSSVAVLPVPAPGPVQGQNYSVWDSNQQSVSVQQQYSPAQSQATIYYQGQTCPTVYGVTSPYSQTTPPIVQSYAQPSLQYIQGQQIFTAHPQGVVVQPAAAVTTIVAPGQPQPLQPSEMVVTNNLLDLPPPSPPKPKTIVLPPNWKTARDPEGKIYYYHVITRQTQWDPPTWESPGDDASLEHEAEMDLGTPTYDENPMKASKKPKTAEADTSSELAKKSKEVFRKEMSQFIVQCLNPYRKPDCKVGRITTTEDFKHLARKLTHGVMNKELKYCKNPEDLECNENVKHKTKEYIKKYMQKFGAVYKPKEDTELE

Halo-ySet2 (yeast) = target: T3, Halo-ySet2 (yeast) (UniProt P46995)
T3 sequence: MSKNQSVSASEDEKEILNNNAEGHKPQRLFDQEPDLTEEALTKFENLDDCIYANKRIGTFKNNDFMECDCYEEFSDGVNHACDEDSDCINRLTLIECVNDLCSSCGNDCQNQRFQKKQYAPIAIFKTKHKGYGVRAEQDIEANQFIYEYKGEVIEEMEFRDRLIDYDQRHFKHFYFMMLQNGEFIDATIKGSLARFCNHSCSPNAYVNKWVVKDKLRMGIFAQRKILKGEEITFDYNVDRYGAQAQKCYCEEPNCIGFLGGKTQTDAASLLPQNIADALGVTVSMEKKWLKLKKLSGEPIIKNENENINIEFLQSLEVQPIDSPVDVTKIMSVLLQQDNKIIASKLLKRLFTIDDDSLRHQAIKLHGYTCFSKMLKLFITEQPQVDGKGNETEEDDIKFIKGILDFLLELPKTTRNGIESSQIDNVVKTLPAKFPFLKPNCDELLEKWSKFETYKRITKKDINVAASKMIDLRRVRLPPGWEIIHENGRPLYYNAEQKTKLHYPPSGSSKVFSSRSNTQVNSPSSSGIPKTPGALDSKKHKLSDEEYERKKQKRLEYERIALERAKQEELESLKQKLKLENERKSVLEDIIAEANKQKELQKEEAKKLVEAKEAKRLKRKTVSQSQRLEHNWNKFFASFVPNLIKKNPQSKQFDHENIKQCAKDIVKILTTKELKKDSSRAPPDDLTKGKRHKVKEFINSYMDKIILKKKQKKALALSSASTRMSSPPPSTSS

Measured: binding

B1: hnRNP L (endogenous) (protein, UniProt P14866 1-589)
chain: MSRRLLPRAEKRRRRLEQRQQPDEQRRRSGAMVKMAAAGGGGGGGRYYGGGSEGGRAPKRLKTDNAGDQHGGGGGGGGGAGAAGGGGGGENYDDPHKTPASPVVHIRGLIDGVVEADLVEALQEFGPISYVVVMPKKRQALVEFEDVLGACNAVNYAADNQIYIAGHPAFVNYSTSQKISRPGDSDDSRSVNSVLLFTILNPIYSITTDVLYTICNPCGPVQRIVIFRKNGVQAMVEFDSVQSAQRAKASLNGADIYSGCCTLKIEYAKPTRLNVFKNDQDTWDYTNPNLSGQGDPGSNPNKRQRQPPLLGDHPAEYGGPHGGYHSHYHDEGYGPPPPHYEGRRMGPPVGGHRRGPSRYGPQYGHPPPPPPPPEYGPHADSPVLMVYGLDQSKMNCDRVFNVFCLYGNVEKVKFMKSKPGAAMVEMADGYAVDRAITHLNNNFMFGQKLNVCVSKQPAIMPGQSYGLEDGSCSYKDFSESRNNRFSTPEQAAKNRIQHPSNVLHFFNAPLEVTEENFFEICDELGVKRPSSVKVFSGKSERSSSGLLEWESKSDALETLGFLNHYQMKNPNGPYPYTLKLCFSTAQHAS
no binding: [1] | [2] | Halo-ySet2 (yeast)
